Data on 2 molecules can be found in PMC6821156.

Sequences of proteins named here, by UniProt entry; tags and fusion partners are left off.
UniProt P26369: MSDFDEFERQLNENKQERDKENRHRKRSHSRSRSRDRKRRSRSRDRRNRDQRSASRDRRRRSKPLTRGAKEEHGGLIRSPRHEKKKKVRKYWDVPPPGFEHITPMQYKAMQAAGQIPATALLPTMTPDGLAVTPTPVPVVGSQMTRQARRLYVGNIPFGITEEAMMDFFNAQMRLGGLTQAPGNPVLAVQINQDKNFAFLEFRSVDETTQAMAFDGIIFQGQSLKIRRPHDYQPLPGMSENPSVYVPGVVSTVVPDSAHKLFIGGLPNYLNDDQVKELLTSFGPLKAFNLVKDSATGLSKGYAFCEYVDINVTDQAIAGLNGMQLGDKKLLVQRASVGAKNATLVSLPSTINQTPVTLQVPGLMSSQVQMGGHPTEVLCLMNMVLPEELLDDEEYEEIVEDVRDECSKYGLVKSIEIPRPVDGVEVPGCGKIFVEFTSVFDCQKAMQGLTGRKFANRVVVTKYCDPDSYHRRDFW

The target in test [1] is T1, Flag-tagged U2AF1a (endogenous, U2af1a-only Tsc1-/- MEF cell line) (mouse (endogenous in Tsc1-/- MEFs)) (UniProt Q9D883).
T1 sequence: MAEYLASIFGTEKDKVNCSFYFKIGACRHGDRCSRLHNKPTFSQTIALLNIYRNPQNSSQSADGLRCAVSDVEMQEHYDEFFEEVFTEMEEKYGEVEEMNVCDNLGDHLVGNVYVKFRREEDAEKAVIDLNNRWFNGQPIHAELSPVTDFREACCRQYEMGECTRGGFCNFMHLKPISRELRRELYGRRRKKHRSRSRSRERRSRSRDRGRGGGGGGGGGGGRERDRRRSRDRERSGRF
The test is described as follows: co-IP; anti-Flag immunoprecipitation from total cellular extracts of Flag-tagged U2AF1 isoform-specific Tsc1-/- MEF cell lines, western blot. On the technique in general: Immunoblotting shows a protein as a band on a membrane.

The target in test [2] is T2, U2AF1b-Flag (expressed in HEK293) (UniProt Q01081).
T2 sequence: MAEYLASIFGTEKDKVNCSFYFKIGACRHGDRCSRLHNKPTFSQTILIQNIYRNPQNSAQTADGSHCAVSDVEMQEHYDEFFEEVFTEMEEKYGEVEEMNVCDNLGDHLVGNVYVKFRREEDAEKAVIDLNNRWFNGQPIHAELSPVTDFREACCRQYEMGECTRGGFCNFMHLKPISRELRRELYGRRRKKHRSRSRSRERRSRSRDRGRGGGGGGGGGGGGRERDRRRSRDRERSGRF
The experiment in a line: co-IP; MBNL2 co-expressed with U2AF1a-Flag or U2AF1b-Flag in HEK293; Flag-IP from nuclear fractions in the absence or presence of RNase A; blots with anti-Flag and anti-MBNL2.

No constants are given. Whether binding was seen depends on the method and setting. In cells and extracts the contact can be indirect. Some binding calls cover weakened binding; strength is not graded here. Sequences can lack the tags named with a protein.

As to U2AF2 (from UniProt P26369 1-475), in test [1], the binding entry is listed as “binds”.

B1: MBNL2 (expressed in HEK293) (protein, UniProt Q5VZF2 1-373)
chain: MALNVAPVRDTKWLTLEVCRQFQRGTCSRSDEECKFAHPPKSCQVENGRVIACFDSLKGRCSRENCKYLHPPTHLKTQLEINGRNNLIQQKTAAAMLAQQMQFMFPGTPLHPVPTFPVGPAIGTNTAISFAPYLAPVTPGVGLVPTEILPTTPVIVPGSPPVTVPGSTATQKLLRTDKLEVCREFQRGNCARGETDCRFAHPADSTMIDTSDNTVTVCMDYIKGRCMREKCKYFHPPAHLQAKIKAAQHQANQAAVAAQAAAAAATVMAFPPGALHPLPKRQALEKSNGTSAVFNPSVLHYQQALTSAQLQQHAAFIPTGSVLCMTPATSIDNSEIISRNGMECQESALRITKHCYCTYYPVSSSIELPQTAC
For the molecule B1, the binding result in test [2] is listed as “binds”.
